Results are given in words; binding and its absence hold for the method and conditions named. Binding seen in cells or lysates may run through a third protein. A yes stands for co-enrichment or nearness to the bait. Other partners may have been found.
Molecular target: T1, human band 4.2 (human) (UniProt P16452)
T1 sequence: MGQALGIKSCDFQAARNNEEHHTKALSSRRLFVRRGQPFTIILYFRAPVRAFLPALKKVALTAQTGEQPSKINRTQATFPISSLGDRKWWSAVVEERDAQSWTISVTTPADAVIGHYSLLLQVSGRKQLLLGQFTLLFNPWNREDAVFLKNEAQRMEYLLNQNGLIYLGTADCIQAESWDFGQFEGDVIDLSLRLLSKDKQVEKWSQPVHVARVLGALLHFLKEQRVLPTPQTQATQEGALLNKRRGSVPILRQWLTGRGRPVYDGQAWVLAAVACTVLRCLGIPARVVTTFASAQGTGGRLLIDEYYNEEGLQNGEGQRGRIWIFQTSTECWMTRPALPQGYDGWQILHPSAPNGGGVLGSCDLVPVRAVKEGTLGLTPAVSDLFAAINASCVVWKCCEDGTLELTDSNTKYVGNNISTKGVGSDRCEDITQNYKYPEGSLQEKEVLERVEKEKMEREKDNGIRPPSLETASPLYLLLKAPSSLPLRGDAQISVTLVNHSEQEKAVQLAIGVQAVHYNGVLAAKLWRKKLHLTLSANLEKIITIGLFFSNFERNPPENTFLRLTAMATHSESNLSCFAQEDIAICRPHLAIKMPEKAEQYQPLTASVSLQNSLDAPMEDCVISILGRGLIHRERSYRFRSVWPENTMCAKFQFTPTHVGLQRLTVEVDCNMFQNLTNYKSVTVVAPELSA
Assay: affinity purification with mass spectrometry; reverse Co-IP from 3D7 wild-type parasite lysate, cross-linked in 1% formaldehyde; α-band 4.2 antibodies cross-linked with BS3 to Dynabeads Protein G; LC-MS/MS of the eluate, performed twice

By UniProt entry, the sequences of proteins in these tests, tags left out.
UniProt P16157: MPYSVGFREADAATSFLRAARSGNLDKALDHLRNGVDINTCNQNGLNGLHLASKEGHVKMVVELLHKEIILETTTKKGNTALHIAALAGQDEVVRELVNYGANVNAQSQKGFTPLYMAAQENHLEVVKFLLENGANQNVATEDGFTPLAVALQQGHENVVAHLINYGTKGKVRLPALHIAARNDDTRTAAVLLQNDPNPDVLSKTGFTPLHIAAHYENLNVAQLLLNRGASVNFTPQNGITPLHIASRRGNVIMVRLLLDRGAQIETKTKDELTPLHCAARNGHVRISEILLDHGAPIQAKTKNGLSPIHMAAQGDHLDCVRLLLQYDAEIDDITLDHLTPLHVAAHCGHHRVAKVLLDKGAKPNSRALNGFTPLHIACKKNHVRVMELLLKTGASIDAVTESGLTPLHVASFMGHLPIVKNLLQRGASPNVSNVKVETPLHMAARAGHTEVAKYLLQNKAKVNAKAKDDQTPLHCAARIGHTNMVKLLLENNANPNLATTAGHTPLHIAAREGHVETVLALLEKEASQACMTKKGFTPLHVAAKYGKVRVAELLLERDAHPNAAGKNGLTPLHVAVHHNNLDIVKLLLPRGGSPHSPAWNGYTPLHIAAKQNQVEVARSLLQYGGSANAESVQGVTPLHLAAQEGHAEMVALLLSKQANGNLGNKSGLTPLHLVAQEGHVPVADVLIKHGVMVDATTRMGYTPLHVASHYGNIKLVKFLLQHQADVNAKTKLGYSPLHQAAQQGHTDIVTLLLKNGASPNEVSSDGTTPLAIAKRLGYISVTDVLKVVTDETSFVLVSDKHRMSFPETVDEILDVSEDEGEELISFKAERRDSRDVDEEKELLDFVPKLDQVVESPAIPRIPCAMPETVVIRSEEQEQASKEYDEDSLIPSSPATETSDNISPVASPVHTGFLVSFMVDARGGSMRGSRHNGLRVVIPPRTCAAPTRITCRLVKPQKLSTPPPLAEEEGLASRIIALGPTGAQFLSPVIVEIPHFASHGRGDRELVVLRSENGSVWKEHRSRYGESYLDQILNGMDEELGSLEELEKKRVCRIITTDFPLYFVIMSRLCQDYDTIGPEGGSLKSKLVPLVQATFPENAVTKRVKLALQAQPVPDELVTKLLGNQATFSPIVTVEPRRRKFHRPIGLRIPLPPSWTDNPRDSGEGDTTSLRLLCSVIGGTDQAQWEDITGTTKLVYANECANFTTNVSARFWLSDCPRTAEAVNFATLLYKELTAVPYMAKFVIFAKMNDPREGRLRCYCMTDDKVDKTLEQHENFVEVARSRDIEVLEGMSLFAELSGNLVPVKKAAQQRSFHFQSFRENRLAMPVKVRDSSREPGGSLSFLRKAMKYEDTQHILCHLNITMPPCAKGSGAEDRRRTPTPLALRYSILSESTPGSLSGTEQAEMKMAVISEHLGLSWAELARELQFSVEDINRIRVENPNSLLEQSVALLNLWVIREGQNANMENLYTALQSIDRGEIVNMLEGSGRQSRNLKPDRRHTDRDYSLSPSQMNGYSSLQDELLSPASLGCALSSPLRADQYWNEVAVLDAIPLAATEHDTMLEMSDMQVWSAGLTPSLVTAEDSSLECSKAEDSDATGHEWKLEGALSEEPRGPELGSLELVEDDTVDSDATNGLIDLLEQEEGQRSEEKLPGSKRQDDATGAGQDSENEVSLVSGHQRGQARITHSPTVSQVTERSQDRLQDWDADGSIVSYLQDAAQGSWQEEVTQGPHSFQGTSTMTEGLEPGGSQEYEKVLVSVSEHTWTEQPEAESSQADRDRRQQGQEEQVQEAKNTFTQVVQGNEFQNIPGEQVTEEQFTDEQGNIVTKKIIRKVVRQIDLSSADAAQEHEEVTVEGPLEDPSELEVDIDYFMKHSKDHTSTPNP
UniProt P11277: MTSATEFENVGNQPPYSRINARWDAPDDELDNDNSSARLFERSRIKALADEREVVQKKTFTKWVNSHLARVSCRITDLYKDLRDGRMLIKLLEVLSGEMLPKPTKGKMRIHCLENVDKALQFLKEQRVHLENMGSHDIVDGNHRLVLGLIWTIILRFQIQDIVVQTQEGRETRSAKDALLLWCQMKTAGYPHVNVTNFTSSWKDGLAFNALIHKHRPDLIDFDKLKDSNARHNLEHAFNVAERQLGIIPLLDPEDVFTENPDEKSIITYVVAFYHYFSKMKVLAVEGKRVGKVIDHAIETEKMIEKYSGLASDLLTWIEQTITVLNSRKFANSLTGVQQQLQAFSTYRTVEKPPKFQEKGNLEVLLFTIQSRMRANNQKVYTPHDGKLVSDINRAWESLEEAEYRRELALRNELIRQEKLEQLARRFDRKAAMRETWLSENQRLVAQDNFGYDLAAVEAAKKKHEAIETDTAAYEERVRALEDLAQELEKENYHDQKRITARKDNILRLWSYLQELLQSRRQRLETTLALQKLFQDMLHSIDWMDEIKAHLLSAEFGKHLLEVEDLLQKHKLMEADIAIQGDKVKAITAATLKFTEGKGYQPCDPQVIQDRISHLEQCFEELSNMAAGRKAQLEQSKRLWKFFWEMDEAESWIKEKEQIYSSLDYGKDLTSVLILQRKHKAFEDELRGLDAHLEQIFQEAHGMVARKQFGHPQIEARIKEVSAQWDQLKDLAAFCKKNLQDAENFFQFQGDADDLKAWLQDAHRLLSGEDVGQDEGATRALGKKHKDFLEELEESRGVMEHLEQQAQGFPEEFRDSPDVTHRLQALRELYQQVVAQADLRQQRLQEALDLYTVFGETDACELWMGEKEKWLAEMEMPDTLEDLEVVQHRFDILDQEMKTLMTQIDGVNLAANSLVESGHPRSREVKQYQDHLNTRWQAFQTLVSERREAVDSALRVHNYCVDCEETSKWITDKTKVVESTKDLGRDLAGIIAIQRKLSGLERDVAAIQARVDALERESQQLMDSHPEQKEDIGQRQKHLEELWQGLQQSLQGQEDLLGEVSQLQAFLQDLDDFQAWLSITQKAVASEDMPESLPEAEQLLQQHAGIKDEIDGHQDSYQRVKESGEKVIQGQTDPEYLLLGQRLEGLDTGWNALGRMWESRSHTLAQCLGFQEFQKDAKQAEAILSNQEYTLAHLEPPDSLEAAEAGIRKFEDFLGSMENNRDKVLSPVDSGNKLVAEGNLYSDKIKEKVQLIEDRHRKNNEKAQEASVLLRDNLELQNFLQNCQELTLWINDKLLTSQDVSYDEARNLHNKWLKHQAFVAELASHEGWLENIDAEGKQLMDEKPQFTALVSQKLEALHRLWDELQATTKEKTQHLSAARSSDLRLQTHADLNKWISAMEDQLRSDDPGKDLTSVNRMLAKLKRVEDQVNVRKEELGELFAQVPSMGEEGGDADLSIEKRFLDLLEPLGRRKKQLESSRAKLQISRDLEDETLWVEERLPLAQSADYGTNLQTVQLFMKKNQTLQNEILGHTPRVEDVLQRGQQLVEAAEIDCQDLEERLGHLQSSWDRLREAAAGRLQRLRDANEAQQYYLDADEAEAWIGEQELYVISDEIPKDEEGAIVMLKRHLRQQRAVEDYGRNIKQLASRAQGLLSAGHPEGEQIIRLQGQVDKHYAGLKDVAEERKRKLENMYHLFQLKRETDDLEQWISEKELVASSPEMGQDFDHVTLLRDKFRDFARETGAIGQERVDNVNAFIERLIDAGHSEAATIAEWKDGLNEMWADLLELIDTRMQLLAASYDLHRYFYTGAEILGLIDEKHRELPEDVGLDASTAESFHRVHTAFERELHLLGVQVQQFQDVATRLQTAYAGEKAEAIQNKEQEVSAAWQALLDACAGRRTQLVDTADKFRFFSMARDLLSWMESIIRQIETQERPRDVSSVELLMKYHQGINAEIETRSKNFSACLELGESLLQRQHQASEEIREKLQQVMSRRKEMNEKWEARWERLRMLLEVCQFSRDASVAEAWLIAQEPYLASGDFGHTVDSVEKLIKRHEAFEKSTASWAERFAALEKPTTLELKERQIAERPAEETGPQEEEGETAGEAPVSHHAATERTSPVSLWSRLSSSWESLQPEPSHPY
UniProt P02730: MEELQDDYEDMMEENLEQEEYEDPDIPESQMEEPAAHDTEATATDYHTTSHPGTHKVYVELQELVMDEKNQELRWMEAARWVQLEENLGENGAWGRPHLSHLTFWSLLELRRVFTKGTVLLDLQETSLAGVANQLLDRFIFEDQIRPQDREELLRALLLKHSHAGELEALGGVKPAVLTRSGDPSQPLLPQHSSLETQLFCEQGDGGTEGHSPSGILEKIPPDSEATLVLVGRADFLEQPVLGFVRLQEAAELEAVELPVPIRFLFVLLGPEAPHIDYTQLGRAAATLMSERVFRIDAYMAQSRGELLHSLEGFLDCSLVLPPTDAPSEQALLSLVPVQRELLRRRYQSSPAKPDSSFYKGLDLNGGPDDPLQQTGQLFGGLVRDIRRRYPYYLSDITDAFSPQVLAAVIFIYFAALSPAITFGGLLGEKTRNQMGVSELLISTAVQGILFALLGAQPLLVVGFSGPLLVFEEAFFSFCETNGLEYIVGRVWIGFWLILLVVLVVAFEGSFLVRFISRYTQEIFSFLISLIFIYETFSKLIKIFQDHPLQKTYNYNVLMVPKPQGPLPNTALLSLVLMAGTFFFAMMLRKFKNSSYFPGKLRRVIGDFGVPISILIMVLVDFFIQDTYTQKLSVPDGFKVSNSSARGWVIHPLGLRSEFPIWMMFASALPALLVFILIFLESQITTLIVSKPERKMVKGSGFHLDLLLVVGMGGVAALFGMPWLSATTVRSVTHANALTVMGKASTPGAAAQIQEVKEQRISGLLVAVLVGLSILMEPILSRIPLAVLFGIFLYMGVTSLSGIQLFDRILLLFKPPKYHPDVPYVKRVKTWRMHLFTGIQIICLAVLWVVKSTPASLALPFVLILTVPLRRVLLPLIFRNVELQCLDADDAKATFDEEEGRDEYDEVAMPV

| Substance | binding |
| --- | --- |
| ankyrin (from UniProt P16157 1-1881) | binds |
| PFE1605w (endogenous, untagged) | binds |
| α‐chain of spectrin (from UniProt P02549 1-2419) | binds |
| β‐chain of spectrin (from UniProt P11277 1-2137) | binds |
| human band 3 (endogenous) (from UniProt P02730 1-911) | binds |

Source: publication PMC5103180
